PubChem BioAssay AID686938, Drosophila RNAi Screening Center, 2013

Screen: 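Looking for CRAC channel components and the factors controlling them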 (primary screen)
Cells: Drosophila S2R+ cells
Knock-down reagent: long dsRNA against Drosophila genes, about 0.25 µg dsRNA per well, roughly 10,000 cells
Time to read-out: 5 days of knock-down before the calcium assay
Treatment: thapsigargin (SERCA pump blocker) to empty calcium stores; entry signal taken 4 min after adding it
Read-out: 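Per-well fluo-4 fluorescence in two replicates, unnormalised, measured in resting cells and 4 min after store depletion by the SERCA blocker thapsigargin; ratio of the two present in few wells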
Direction: calcium entry signal: higher = stronger calcium signal after store depletion; resting calcium signal: higher = higher resting calcium signal
Rule for the call: 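Hit if the duplicate-averaged plate z-score for entry over resting signal is under −3; wells with weak total dye signal (Fmax z < −2) or more than 5 off-targets removed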
Meaning of the calls: active = strongly reduced calcium entry; inactive = no strong reduction
The screen tested about 23,000 reagents; shown is an unselected part of those that have a named target and a result. In the full data, 75 (0.33%) got an active call. 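Raw plate signals without normalisation; calls rest on plate z-scores that were not deposited; ratio present for only 364 wells.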 Entries without a mark were called inactive. Names joined by + are all predicted targets of the reagent. Not stated in the record: the dose of the treatment.

target | dsRNA | calcium entry signal, replicate 1 (fluorescence units) | calcium entry signal, replicate 2 (fluorescence units) | resting calcium signal, replicate 1 (fluorescence units) | resting calcium signal, replicate 2 (fluorescence units)
Arf6 | DRSC05921 | 4.59e7 | 5.97e7 | 2.84e7 | 3.36e7
NimC1 | DRSC01879 | 5.20e7 | 3.52e7 | 2.27e7 | 1.67e7
CG15696 | DRSC15118 | 4.10e7 | 4.61e7 | 6.04e7 | 2.08e7
CG42674 | DRSC10066 | 4.56e7 | 2.55e7 | 2.07e7 | 1.32e7
CG42674 | DRSC10067 | 2.29e7 | 3.64e7 | 1.14e7 | 1.63e7
CG42674 | DRSC10811 | 3.40e7 | 4.86e7 | 1.64e7 | 2.02e7
CG33463 | DRSC22915 | 4.50e7 | 3.81e7 | 2.46e7 | 1.81e7
CARPB | DRSC18437 | 4.07e7 | 3.59e7 | 1.92e7 | 1.81e7
CARPB | DRSC18438 | 3.37e7 | 4.62e7 | 1.60e7 | 2.02e7
CG7384 | DRSC03053 | 4.67e7 | – | 2.22e7 | –
CG14717 | DRSC14940 | 4.43e7 | 3.96e7 | 2.18e7 | 2.09e7
pps | DRSC16057 | 3.61e7 | 4.70e7 | 1.97e7 | 2.35e7
CG15293 | DRSC01919 | 5.41e7 | 3.45e7 | 2.38e7 | 1.66e7
Eglp1 | DRSC04502 | 4.24e7 | – | 2.30e7 | –
CG3546 | DRSC18308 | 3.87e7 | 5.28e7 | 2.19e7 | 2.40e7
Pepck2 | DRSC06013 | 5.81e7 | 6.45e7 | 2.33e7 | 2.89e7

Continued (3 carried over from the part before).
target | dsRNA | calcium entry signal, replicate 1 (fluorescence units) | calcium entry signal, replicate 2 (fluorescence units) | resting calcium signal, replicate 1 (fluorescence units) | resting calcium signal, replicate 2 (fluorescence units)
Eglp1 | DRSC04502 | 4.24e7 | – | 2.30e7 | –
CG3546 | DRSC18308 | 3.87e7 | 5.28e7 | 2.19e7 | 2.40e7
Pepck2 | DRSC06013 | 5.81e7 | 6.45e7 | 2.33e7 | 2.89e7
CG43315 | DRSC06296 | 2.60e7 | 3.81e7 | 1.35e7 | 1.64e7
CG43064 | DRSC09133 | 5.05e7 | 3.67e7 | 2.66e7 | 1.70e7
Sec24AB | DRSC06478 | 3.01e7 | 3.26e7 | 1.39e7 | 1.65e7
CG5160 | DRSC02821 | 3.88e7 | 4.15e7 | 2.01e7 | 1.87e7
robo3 | DRSC00374 | 3.70e7 | 4.18e7 | 1.74e7 | 1.68e7
robo3 | DRSC00375 | 3.99e7 | 4.44e7 | 1.78e7 | 1.83e7
robo3 | DRSC00684 | 3.57e7 | 4.14e7 | 1.76e7 | 1.80e7
zpg | DRSC09702 | 2.90e7 | 4.96e7 | 1.37e7 | 2.25e7
CG5928 | DRSC18391 | 4.00e7 | 4.86e7 | 1.94e7 | 2.49e7
spz | DRSC17065 | 3.04e7 | 3.85e7 | 1.38e7 | 1.67e7
CG8584 | DRSC07217 | 4.18e7 | 4.56e7 | 1.98e7 | 1.91e7
CG14891 | DRSC15013 | 4.48e7 | 3.39e7 | 2.08e7 | 1.48e7
CG11089 + CG31381 | DRSC13690 | 3.87e7 | 3.31e7 | 1.87e7 | 1.73e7
CG11089 + CG31381 | DRSC14290 | 4.93e7 | 4.22e7 | 2.38e7 | 1.95e7
CG3061 | DRSC15460 | 3.60e7 | 5.11e7 | 1.79e7 | 6.04e7
Naxd | DRSC09722 | 3.82e7 | 5.00e7 | 1.80e7 | 3.28e7
CG5808 | DRSC14124 | 2.95e7 | 2.76e7 | 1.47e7 | 1.37e7
Tep3 | DRSC03452 | 2.75e7 | 3.74e7 | 1.33e7 | 1.67e7
CG31957 | DRSC00207 | 2.33e7 | 3.43e7 | 1.32e7 | 1.60e7
CG42500 | DRSC14822 | 1.80e7 | 3.11e7 | 1.02e7 | 5.90e7
obst-J | DRSC10821 | 3.10e7 | 5.33e7 | 1.46e7 | 2.24e7
bun | DRSC01253 | 4.06e7 | 4.37e7 | 1.94e7 | 1.94e7
bun | DRSC01255 | 3.89e7 | 4.37e7 | 1.87e7 | 1.93e7
bun | DRSC03500 | 3.35e7 | – | 2.32e7 | –
bun | DRSC23041 | 4.53e7 | 3.05e7 | 2.30e7 | 1.48e7
